We go through 2 molecules from paper PMC7161113.

Sequences of proteins named here, by UniProt entry; tags and fusion partners are left off.
UniProt P96825: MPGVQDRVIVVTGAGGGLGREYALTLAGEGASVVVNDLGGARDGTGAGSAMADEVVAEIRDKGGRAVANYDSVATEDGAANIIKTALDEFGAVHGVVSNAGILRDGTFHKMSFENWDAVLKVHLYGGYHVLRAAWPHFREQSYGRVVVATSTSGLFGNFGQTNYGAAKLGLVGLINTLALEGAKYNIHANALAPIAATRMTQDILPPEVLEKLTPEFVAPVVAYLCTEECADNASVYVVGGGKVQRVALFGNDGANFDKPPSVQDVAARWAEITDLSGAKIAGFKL

These are yes or no findings as the source states them, for the method shown. For part of these data: Binding seen in cells or lysates may run through a third protein. Some results given as binding are weak or reduced against the parent protein; the word gives no strength. Sequences can lack the tags named with a protein.

For assay [1], the target named is T1, His-tagged Htdy (Rv3389) (Mycobacterium tuberculosis) (UniProt I6YBZ8).
T1 sequence: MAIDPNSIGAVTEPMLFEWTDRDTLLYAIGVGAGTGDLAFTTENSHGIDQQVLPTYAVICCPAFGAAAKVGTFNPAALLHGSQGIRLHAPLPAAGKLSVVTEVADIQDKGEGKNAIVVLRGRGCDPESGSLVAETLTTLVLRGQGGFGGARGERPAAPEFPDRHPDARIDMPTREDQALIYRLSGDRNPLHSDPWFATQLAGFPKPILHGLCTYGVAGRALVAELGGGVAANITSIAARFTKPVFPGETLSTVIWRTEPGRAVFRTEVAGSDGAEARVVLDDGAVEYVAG
The assay can be described thus: pull-down.

The target in assay [2] is GST-tagged Rv0148 (Mycobacterium tuberculosis) (UniProt P96825). The assay can be described thus: far-Western, overlay or dot blot.
For assay [3] the target is unchanged. Briefly: pull-down; reverse orientation: GST-tagged Rv0148 lysate as bait, His-tagged recombinant Htdy as prey; details of this orientation not told.

For the molecule “GST-tagged Rv0148 (from UniProt P96825 1-286) (enzyme)”, the binding entry in assay [1] was “binds”.

B1: His-tagged Htdy (Rv3389) (enzyme, UniProt I6YBZ8 1-290)
chain: T1 sequence
For the molecule B1, the binding entry in assay [2] and in assay [3] was “binds” throughout.
